Results taken from PubChem BioAssay AID504467 (National Center for Advancing Translational Sciences (NCATS), 2011).
Out of some 330,000 compounds screened, about 7,700 (2.3%) were called active. Inconclusive results, whose numbers are uncertain, are shown with a selection of clear calls. Calls come from the whole dose curve; as a rule, active = well fitted inhibition curve with a large enough effect; inconclusive = small, poorly fitted or top-dose-only effect, or effect the other way; inactive = flat fitted curve, though single readings scatter. Where the call is inconclusive, the potency comes from a doubtful curve fit.

test: qHTS screen for small molecules that inhibit ELG1-dependent DNA repair in human embryonic kidney (HEK293T) cells expressing luciferase-tagged ELG1; settings: HEK293T ELG1-luciferase reporter, luminescence, 16 h, DNA damage induced by 5-fluorouridine; activity change, negative = inhibition: at 46.1 µM (top of the series); note: nearly all actives have a fitted effect of over 55% in size
How it was run: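 In this reporter screen, reduction of luminescence relative to DMSO vehicle indicated activity. Compounds and 5-fluorouridine were added together to 2,000 cells per well, incubated for 16 hr at 37 °C, then developed with ONE-Glo.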
% is set by controls: 0 for no effect and ±100 for the full control effect; potency is the fitted concentration of half-maximal effect.

SMILES | activity change, negative = inhibition | Potency
Cc1nc2ccc(NS(=O)(=O)c3ccc(F)cc3F)cc2s1 | inactive: 0.23% | 
Cn1c(SCC(=O)c2ccc(F)cc2)nnc1-c1ccccc1N |  | inconclusive: 14.6 µM [activator, partial curve]
c1csc(-c2noc(CN3CCN4CCCC4C3)n2)c1 (centres undefined) |  | inconclusive: 29.1 µM [activator, single point]
N#CCCN(C(=O)COC(=O)c1cc(=O)c2ccccc2o1)c1ccccc1 | inactive: 15.5% | 
COCCNC(=O)C(=O)Nc1cc2c3c(c1)C(C)C(=O)N3CCC2 (centres undefined) |  | inconclusive: 20.6 µM [activator, partial curve]
O=C(Nc1ccccc1)C(=O)Nc1ccccn1 |  | inconclusive: 1.03 µM [activator, partial curve]
Cc1ccccc1NCc1ccc(O)c2ncccc12 | inactive: -2.86% | 
CCC1(CC)NC(=O)N(CC(=O)OC(C)C(=O)Nc2cc([N+](=O)[O-])ccc2OC)C1=O (centres undefined) | inactive: -23.1% | 
CCCCCc1ccc(-c2ccc(/C=C/C(=O)O)cc2)nc1 |  | inconclusive: 0.461 µM [activator, full curve]
CC1(C)OC(=O)C(=CNCCc2ccc(O)cc2)C(=O)O1 | inactive: -21.6% | 
O=C(NCC1CCCN(C(=O)c2cscn2)C1)c1ccc(-c2ccccc2)cc1 (centres undefined) |  | inconclusive: 18.3 µM [inhibitor, single point]
O=C(N/N=C\c1cc2c(cc1Cl)OCO2)c1cccs1 |  | inconclusive: 20.6 µM [activator, single point]
CN(C)CCNC(=S)NC1CCCCC1 | inactive: 5.24% | 
CCNC(=O)C1CCCN1S(=O)(=O)c1ccc(C)cc1 (centres undefined) | inactive: 10.6% | 
COc1ccc(N(C(=O)c2snc(C(N)=O)c2N)C(C(=O)NC2CCCC2)c2ccco2)c(OC)c1 (centres undefined) | inactive: -6.68% | 
O=C(/C=C/c1ccco1)N1CCN(c2ncccn2)CC1 |  | inconclusive: 20.6 µM [activator, single point]
CCS(=O)(=O)N1CCN(C(=O)c2cccc3ccccc23)CC1 | inactive: 8.62% | 
NC(=O)c1ccc(N2CCN(S(=O)(=O)c3cccs3)CC2)c([N+](=O)[O-])c1 |  | active: 2.31 µM
Cc1ccc(-c2nnn(CC(=O)O)n2)cc1 | inactive: 5.1% | 
C/C(=N\NC(=O)c1n[nH]c2c1CCC2)c1cccs1 |  | inconclusive: 0.206 µM [activator, full curve]
CCN(CC)C(=O)CSc1nnc(SCc2ccc(Cl)cc2)s1 |  | inconclusive: 5.62 µM [inhibitor, single point]
COc1ccc(OC)c(CN2CCN(Cc3cccc4ccccc34)CC2)c1 |  | inconclusive: 29.1 µM [inhibitor, single point]
Cc1ccc(O)c(NC(=O)CSc2ccc(Cl)cc2)c1 |  | inconclusive: 29.1 µM [inhibitor, single point]
O=C(CSc1nc(-c2ccccc2)c(-c2ccccc2)o1)NC1CCS(=O)(=O)C1 (centres undefined) |  | active: 23.1 µM
O=C(COc1ccc(F)cc1Cl)Nc1cc(S(=O)(=O)N2CCOCC2)ccc1N1CCCCC1 | inactive: -11% | 

SMILES | activity change, negative = inhibition | Potency
Cc1ccc(C)c2c1[nH]c1ccccc12 | inactive: -6.57% | 
O=C(CCCSc1nnc(SCCCC(=O)c2ccc(F)cc2)s1)c1ccc(F)cc1 |  | inconclusive: 14.6 µM [inhibitor, partial curve, poor fit]
O/N=C/c1cn(-c2ccccc2)nc1-c1ccc2c(c1)OCCO2 |  | inconclusive: 25.9 µM [activator, single point]
CN(c1ccccc1)S(=O)(=O)c1cccc(NC(=O)Nc2ccc(Cl)cc2C#N)c1 |  | inconclusive: 32.6 µM [inhibitor, partial curve, poor fit]
Cc1ccccc1CN1CCc2c(OCC(=O)N3CCCCC3)cccc2C1=O |  | inconclusive: 18.3 µM [inhibitor, partial curve]
Cc1nn(-c2ccccc2)c2c1c(C)c(CCC(=O)N1CCOCC1)c(=O)n2C | inactive: -29.6% | 
CCOc1cc(-c2ccc3c(c2)OCO3)cc(=O)c2c(C)oc(C)c12 | inactive: -0.539% | 
Cc1ccc(-c2nc(CSCC(=O)N3CCOCC3)c(C)o2)cc1 |  | inconclusive: 20.6 µM [inhibitor, single point]
COc1ccc(C/C(N)=N/OC(=O)c2cccc([N+](=O)[O-])c2)cc1 | inactive: -0.748% | 
O=[N+]([O-])c1ccc(-c2nc(-c3cccs3)c(-c3cccs3)[nH]2)cc1 |  | active: 20.6 µM
Cc1nc2cc(NCc3nc4ccccc4n3Cc3ccccc3)ccc2n1C |  | inconclusive: 1.16 µM [activator, partial curve]
C=CCSc1nnc(NC(=O)c2c(CC)noc2C)s1 | inactive: 15.1% | 
Cc1ccc(NC(=O)CN(C)C(=O)CSc2nccn2C)cc1 |  | inconclusive: 29.1 µM [activator, partial curve, poor fit]
COC(=O)c1sccc1NC(=O)c1c(C)noc1C |  | inconclusive: 2.59 µM [activator, partial curve, poor fit]
CCOc1ccc(C(=O)NC2C(=O)N3C(C(=O)O)=C(COC(C)=O)CSC23)cc1OCC (centres undefined) |  | inconclusive: 4.11 µM [inhibitor, partial curve, poor fit]
O=C(Cn1cnc2c(nnn2Cc2ccc(F)cc2)c1=O)N1CCN(c2ccccc2)CC1 |  | inconclusive: 29.1 µM [inhibitor, partial curve, poor fit]
CN(C(=O)Nc1ccccc1)C1CCCCC1 |  | inconclusive: 23.1 µM [activator, partial curve]
CCOC(=O)c1sc2nc(CC(=O)OC)nc(N3CCN(c4ccc(OC)cc4)CC3)c2c1C |  | inconclusive: 2.06 µM [inhibitor, partial curve]
Cc1c(C(=O)C(=O)NCC2CCCO2)c2ccccc2n1C (centres undefined) | inactive: -2.74% | 
COc1ccc(-c2nc(CS(=O)CC(=O)NCc3ccc4c(c3)OCO4)c(C)o2)cc1 (centres undefined) |  | inconclusive: 20.6 µM [inhibitor, single point]
Cc1ccc(NC(=O)NC(=O)CSc2nnnn2C)c(C)c1 |  | inconclusive: 32.6 µM [activator, single point]
Cc1cc(C)c2nc(N3CCCC(C(=O)N4CCN(c5ncccn5)CC4)C3)sc2c1 (centres undefined) |  | inconclusive: 29.1 µM [inhibitor, single point]
COc1ccc(NC(=O)CN2C(=O)NC(CC(C)C)C2=O)cc1S(=O)(=O)N1CCOCC1 (centres undefined) | inactive: 6.44% | 
N#Cc1ccc(C(=O)Nc2cccc3ncccc23)c(F)c1 |  | inconclusive: 16.4 µM [inhibitor, partial curve]
CC(C)CN(C(=O)COC(=O)c1cccc2ccccc12)c1c(N)n(Cc2ccccc2)c(=O)[nH]c1=O |  | inconclusive: 35.5 µM [inhibitor, single point]

SMILES | activity change, negative = inhibition | Potency
Cc1ccccc1Cn1nc(C)c(NC(=O)c2cc3nc(-c4ccco4)cc(C(F)(F)F)n3n2)c1C |  | inconclusive: 23.1 µM [inhibitor, single point]
O=C(C#Cc1ccccc1)Nc1ccccc1F |  | inconclusive: 7.3 µM [activator, partial curve]
Cc1cccc(N2CCN(C(=O)C(NS(=O)(=O)c3cccs3)c3ccccc3)CC2)c1C (centres undefined) |  | inconclusive: 18.4 µM [inhibitor, single point]
COc1cccc(C(=O)NCC(=O)NCc2cc(=O)n(C)c(=O)n2C)c1OC |  | inconclusive: 4.61 µM [activator, single point]
O=C(CCCSc1nnnn1-c1cccc2ccccc12)c1ccc(F)cc1 | inactive: -27.6% | 
Cc1cc(C)c(S(C)(=O)=O)c(=O)[nH]1 | inactive: 15.9% | 
CCOc1ccc(N(CC(=O)Nc2ccccc2C(=O)N2CCOCC2)S(=O)(=O)c2ccc(F)cc2)cc1 | inactive: -22.7% | 
COc1ccc(C(=O)Nc2ccccc2C(=O)Nc2ccc(C(=O)O)cc2)cc1 |  | inconclusive: 35.5 µM [activator, single point]
CN(C(=O)c1cc(-c2ccc3c(c2)OCO3)on1)c1ccccc1 |  | inconclusive: 16.4 µM [activator, partial curve]
Cc1nsc2nc3c(F)c(F)c(F)c(F)c3cc12 | inactive: 28.3% | 
COc1cccc(-c2csc(N3CCN(C(=O)NC45CC6CC(CC(C6)C4)C5)CC3)n2)c1 |  | active: 23.1 µM
Cc1ccc(C)c(C(=O)COC(=O)CN2C(=O)C3C4C=CC(C4)C3C2=O)c1 (centres undefined) | inactive: 27.5% | 
O=C(c1cccs1)N1CCC(c2nc(-c3ccc(S(=O)(=O)N4CCOCC4)cc3)no2)CC1 |  | inconclusive: 23.1 µM [inhibitor, partial curve]
COc1ncccc1C(=O)N1CCC(n2nccc2NC(=O)CC(C)C)CC1 |  | inconclusive: 23.1 µM [activator, partial curve, poor fit]
COc1ccc(OC)c(-c2c(C#N)c(N)nc3c2c(=O)nc2sccn23)c1 | inactive: 2.04% | 
CCOC(=O)N1CCN(CC(O)COCC2=CCC3CC2C3(C)C)CC1 (centres undefined) | inactive: 5.57% | 
O=C(c1cccc(Br)c1)N1CCN(S(=O)(=O)N2CCCCC2)CC1 | inactive: -6.11% | 
CCOC(=O)C(=NC(C)CC)NNc1cccc(C(F)(F)F)c1 (centres undefined) | inactive: 2.09% | 
Cc1csc(OCC(=O)Nc2ccc(C)c(C)c2)n1 |  | inconclusive: 32.6 µM [activator, single point]
COc1ccc(OC)c(NC(=O)CCCN2C(=S)NC(C)(C)CC2C)c1 (centres undefined) | inactive: -0.127% | 
O=S(=O)(c1ccccc1)N1CCN(C/C=C/c2ccccc2)CC1 | inactive: -12% | 
O=C(CCc1nnc(-c2ccccc2)o1)NC1CCCCC1 |  | inconclusive: 20.6 µM [activator, partial curve]
O=C(Nc1ccc(CN2CCOCC2)cc1)c1ccco1 |  | inconclusive: 8.2 µM [activator, partial curve]
CC(C)(C)NC(=O)c1cccc(NC(=O)c2cccc(O)c2)c1 |  | inconclusive: 18.4 µM [activator, single point]

Ordered by number of heavy atoms (ascending): part of the list above.
SMILES | activity change, negative = inhibition | Potency
Cc1cc(C)c(S(C)(=O)=O)c(=O)[nH]1 | inactive: 15.9% | 
Cc1nsc2nc3c(F)c(F)c(F)c(F)c3cc12 | inactive: 28.3% | 
Cc1csc(OCC(=O)Nc2ccc(C)c(C)c2)n1 |  | inconclusive: 32.6 µM [activator, single point]
O=C(Nc1ccc(CN2CCOCC2)cc1)c1ccco1 |  | inconclusive: 8.2 µM [activator, partial curve]
O=C(CCc1nnc(-c2ccccc2)o1)NC1CCCCC1 |  | inconclusive: 20.6 µM [activator, partial curve]
CCOC(=O)C(=NC(C)CC)NNc1cccc(C(F)(F)F)c1 (centres undefined) | inactive: 2.09% | 
CN(C(=O)c1cc(-c2ccc3c(c2)OCO3)on1)c1ccccc1 |  | inconclusive: 16.4 µM [activator, partial curve]
CCOC(=O)N1CCN(CC(O)COCC2=CCC3CC2C3(C)C)CC1 (centres undefined) | inactive: 5.57% | 
COc1ccc(OC)c(-c2c(C#N)c(N)nc3c2c(=O)nc2sccn23)c1 | inactive: 2.04% | 
COc1ncccc1C(=O)N1CCC(n2nccc2NC(=O)CC(C)C)CC1 |  | inconclusive: 23.1 µM [activator, partial curve, poor fit]
COc1ccc(C(=O)Nc2ccccc2C(=O)Nc2ccc(C(=O)O)cc2)cc1 |  | inconclusive: 35.5 µM [activator, single point]
COc1cccc(-c2csc(N3CCN(C(=O)NC45CC6CC(CC(C6)C4)C5)CC3)n2)c1 |  | active: 23.1 µM
O=C(c1cccs1)N1CCC(c2nc(-c3ccc(S(=O)(=O)N4CCOCC4)cc3)no2)CC1 |  | inconclusive: 23.1 µM [inhibitor, partial curve]
Cc1ccccc1Cn1nc(C)c(NC(=O)c2cc3nc(-c4ccco4)cc(C(F)(F)F)n3n2)c1C |  | inconclusive: 23.1 µM [inhibitor, single point]
CCOc1ccc(N(CC(=O)Nc2ccccc2C(=O)N2CCOCC2)S(=O)(=O)c2ccc(F)cc2)cc1 | inactive: -22.7% | 

Quoted at random: 2 compounds from above.
SMILES | activity change, negative = inhibition | Potency
Cc1ccc(C)c(C(=O)COC(=O)CN2C(=O)C3C4C=CC(C4)C3C2=O)c1 (centres undefined) | inactive: 27.5% | 
O=C(C#Cc1ccccc1)Nc1ccccc1F |  | inconclusive: 7.3 µM [activator, partial curve]
